# Measurements taken from PubChem BioAssay AID1671190 (National Center for Advancing Translational Sciences (NCATS), 2021).
# By UniProt entry, the sequences of proteins in these tests, tags left out. Where a name states a change or a piece, a line headed by the entry shows the natural chain unless it says otherwise.
# UniProt P18054: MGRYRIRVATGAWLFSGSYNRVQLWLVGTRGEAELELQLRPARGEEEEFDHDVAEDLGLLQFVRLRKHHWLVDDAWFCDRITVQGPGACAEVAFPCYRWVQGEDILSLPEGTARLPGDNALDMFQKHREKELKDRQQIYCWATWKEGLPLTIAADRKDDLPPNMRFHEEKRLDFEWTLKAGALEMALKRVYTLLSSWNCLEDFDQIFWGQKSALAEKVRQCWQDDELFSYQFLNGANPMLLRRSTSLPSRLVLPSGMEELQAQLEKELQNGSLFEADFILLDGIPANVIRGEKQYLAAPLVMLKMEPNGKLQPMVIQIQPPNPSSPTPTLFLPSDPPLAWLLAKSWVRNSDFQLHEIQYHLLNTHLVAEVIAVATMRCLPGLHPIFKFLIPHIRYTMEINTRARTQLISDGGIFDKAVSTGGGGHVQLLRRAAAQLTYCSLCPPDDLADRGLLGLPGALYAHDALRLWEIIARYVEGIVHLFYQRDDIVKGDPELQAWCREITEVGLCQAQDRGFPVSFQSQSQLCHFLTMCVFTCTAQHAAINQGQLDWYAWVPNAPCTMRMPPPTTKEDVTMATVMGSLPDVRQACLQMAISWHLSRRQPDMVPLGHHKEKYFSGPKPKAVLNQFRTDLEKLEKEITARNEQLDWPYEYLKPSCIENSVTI
# Out of some 580,000 compounds screened, about 6,100 (1.1%) were called active. Inconclusive means that the source gave no clear call. Such entries were picked first, then a sample of the others. Calls come from the whole dose curve; as a rule, active = well fitted inhibition curve with a large enough effect; inconclusive = small, poorly fitted or top-dose-only effect, or another doubt; inactive = no such curve, though single readings can be large or run the other way. A potency beside an inconclusive call is a rough fit, not a confirmed value.
# Molecular target: Polyunsaturated fatty acid lipoxygenase ALOX12 (Homo sapiens) (UniProt P18054)
# Assay: Primary qHTS assay for inhibitors of human arachidonate 12S-lipoxygenase (ALOX12): Round 2
# Conditions: purified 12hLO, xylenol orange hydroperoxide absorbance; activity change, negative = inhibition: at 108 µM (top of the series) unless noted
# Method in brief: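 Purified human 12hLO (150 nM final) in 25 mM Hepes, 0.01% Triton X-100, pH 7.0 was preincubated 15 min at room temperature with compound. Then 40 uM arachidonic acid was added, 30 min. Hydroperoxide was read by Fe-XO absorbance ratio 573/405 nm.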
# % is set by controls: 0 for no effect and ±100 for the full control effect; potency is the fitted concentration of half-maximal effect.
Structure (SMILES),"activity change, negative = inhibition",Potency
Cc1ccc(-n2nc3c(c2NC(=O)c2c(-c4ccccc4Cl)noc2C)CS(=O)(=O)C3)c(C)c1,inactive: -1.07%,–
CCc1cc(Br)ccc1NC(=S)NCCc1ccccc1,–,"inconclusive: 44.7 µM [inhibitor, partial curve, poor fit]"
CC(C)OC(=O)C1OC1(C)c1ccccc1 (stereo not drawn),inactive: -0.846%,–
O=C(CCn1c2c(c3ccccc31)CCCC2)N1CCc2nc3cc[nH]n3c(=O)c2C1,–,"inconclusive: 17.8 µM [inhibitor, full curve]"
COc1ccc(C(=O)c2sc(Nc3cccc(Cl)c3)nc2N)cc1OC,–,"inconclusive: 28.2 µM [inhibitor, partial curve, poor fit]"
Cn1c(SCC(=O)c2ccccc2)nnc1-c1cnccn1,–,"inconclusive: 39.8 µM [inhibitor, partial curve, poor fit]"
CCc1cc(Cn2nc(-c3ccccc3)cc2C(=O)NCc2ccccc2OC)on1,inactive: -18.4%,–
CCCCN1CC(COCc2ccccc2)Oc2ccccc2S1(=O)=O (stereo not drawn),–,"inconclusive: 50.1 µM [inhibitor, partial curve, poor fit]"
COCCn1c(=O)c(-c2cn(C)c3ccccc23)nc2cnc(N3CCNCC3)nc21,–,"inconclusive: 50.1 µM [inhibitor, partial curve, poor fit]"
COC(=O)C1=C(C)N(Cc2ccccc2C(F)(F)F)C(=NCc2ccccc2)NC1c1ccc(C(F)(F)F)cc1 (stereo not drawn),–,"inconclusive: 79.4 µM [inhibitor, partial curve, poor fit]"
CCc1nn2c(=O)cc(COC(=O)c3cccc(NC(=O)c4cccs4)c3)nc2s1,inactive: -17.2%,–
Cc1cc(C)cc(NC(=S)/N=C(\N)Nc2nc(C)c3ccccc3n2)c1,–,active: 44.7 µM
O=C(NCc1ccccc1)c1nn(Cc2ccccc2)c(=O)c2ccccc12,–,"inconclusive: 35.5 µM [inhibitor, full curve, poor fit]"
CN(/C=C/C(=C\C=[N+](C)c1ccccc1)OCCCS(=O)(=O)[O-])c1ccccc1,–,"inconclusive: 35.5 µM [inhibitor, partial curve, poor fit]"
CCC1CCc2sc(C(=O)N3CCN(c4ccccn4)CC3)cc2C1 (stereo not drawn),–,"inconclusive: 112 µM [inhibitor, single point]"
O=S(=O)(/N=S1\CC=CCN1S(=O)(=O)c1ccccc1)c1ccccc1 (stereo not drawn),–,"inconclusive: 31.6 µM [inhibitor, partial curve]"
CNC(=O)CCn1ncc2cc(OCc3ccccc3-c3ccc(F)cc3OC)ccc21,–,"inconclusive: 44.7 µM [inhibitor, partial curve]"
COCCN1C(=O)c2ccccc2C(C(=O)Nc2cc(C)ccc2OC)C12CCCCC2 (stereo not drawn),inactive: -11.1%,–

# Record cards (already shown).
# `CCc1nn2c(=O)cc(COC(=O)c3cccc(NC(=O)c4cccs4)c3)nc2s1` as listed: activity change, negative = inhibition: inactive: -17.2%
# `CCCCN1CC(COCc2ccccc2)Oc2ccccc2S1(=O)=O` (stereo not drawn) as listed: Potency: inconclusive: 50.1 µM [inhibitor, partial curve, poor fit]
